AC50 data for 63 molecules are collected here from PubChem BioAssay AID445 (National Center for Advancing Translational Sciences (NCATS), 2006).

The structures appear in SMILES notation. This is one part of the list. The main result of the screen is listed elsewhere. These columns were measured beside it and carry no call. Compounds called inactive in the main read-out are mostly missing here. The note in brackets gives the kind of curve behind each potency; many fits are weak.

This assay can be described thus: IkB Signaling. The note with it: ABC-DLBCL IkBa-CBG/CBR dual luciferase ratio (green luciferase fused to IkBa over red control in OCI-Ly3 lymphoma cells), 4 h. The method, boiled down:
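Curves were fitted separately to fusion (green), unfused (red) and ratio luminescence, then classed by r2, magnitude and activity. Cells: OCI-Ly3, 4 h compound plus doxycycline at 37C; 10 uM MG-132 defined full response.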

Where [1] appears, read: measured here: control luc red channel unless noted.
[2] abbreviates: measured here: IkB-luc green channel.
The mark [3] stands for this setting: measured here: control luc red channel.

One may read the AC50 as the concentration at which the activity in the assay is half-maximal. As for `O=C(c1cccs1)N(C(=O)c1cccs1)c1ccccn1`, the AC50 under setting [1] was 31.6 µM [falling, single point].
On the same count and under the same terms, to `Cn1c(=O)c2c(nc(SCC(=O)Nc3ccccc3)n2Cc2ccccc2F)n(C)c1=O` belongs 3.98 µM [falling, full curve]; to `CCN(CC)S(=O)(=O)c1nnc(NC(=O)COc2ccccc2F)s1`, 39.8 µM [falling, single point].
For the molecule `Fc1ccc(CNc2ncnc3onc(-c4ccc(F)cc4)c23)cc1`, the AC50 under setting [1] is 1 µM [falling, single point].
With `CCc1cccc(C)c1Nc1c(-c2ccccc2)nc2sccn12`, the AC50 under setting [1] is 25.1 µM [falling, single point].
In the case of `O=C(C1COc2ccccc2O1)N(Cc1cccnc1)c1nc2ccc(Cl)cc2s1` (stereo not given), the AC50 under setting [1] is 39.8 µM [falling, single point].
Turning to `N#Cc1nc(Cc2cccc3ccccc23)oc1NCCN1CCCCC1`, under setting [1], the half-maximal activity concentration (AC50) is 0.398 µM [falling, full curve].
On to `COc1ccc(OC)c(CNC(=O)c2c3c(nc4ccccc24)C(=O)N(C2CCCCC2)C3)c1`, for which, under setting [1], the AC50 is 10 µM [falling, single point].
In the case of `O=C(Nc1ccc(O)cc1C(=O)O)c1cccc(Br)c1`, the AC50 under setting [1] was 0.0316 µM [falling, full curve].
Regarding `CCOC(=O)c1c(C)[nH]c(C)c1S(=O)(=O)N1CCC(C(=O)N2CCN(c3cccc(Cl)c3)CC2)CC1`, the concentration at half-maximal activity (AC50) under setting [1] is 31.6 µM [falling, single point].
In the case of `CCOC(=O)c1c(S(=O)(=O)N2CCC(C(=O)NCc3ccc(F)cc3)CC2)c(C)n(C)c1C`, under setting [1], the AC50 is 3.16 µM [rising, partial curve, poor fit].
For `Cc1cccc(N(C)C(=O)CCS(=O)(=O)c2ccc3c(c2)oc(=O)n3C)c1`, under setting [1], the concentration at half-maximal activity (AC50) was 31.6 µM [falling, partial curve].
With `COc1ccc(OCC(=O)NC2CC(=O)N(c3cccc(OC)c3)C2)cc1` (stereo not given), the concentration at half-maximal activity (AC50) was 3.98 µM [rising, single point] under setting [2] and 6.31 µM [rising, partial curve] under setting [3].
On to `CCCN(CCC)CC(O)Cn1cc(/C=C/C(=O)c2ccc(C)cc2)c2ccccc21` (stereo not given), for which the concentration at half-maximal activity (AC50) under setting [1] is 25.1 µM [falling, single point].
Regarding `COc1ccc(NC(=O)CN2CCN(Cc3ccc(F)cc3)S2(=O)=O)cc1Cl`, the concentration at half-maximal activity (AC50) under setting [1] was 39.8 µM [falling, single point].
Regarding `COc1ccc(NC(=O)c2cc(S(=O)(=O)N3CCCCCC3)cn2C)c(OC)c1`, under setting [1], the AC50 was 1.58 µM [falling, full curve, poor fit].
For `Cc1ccccc1C(=O)NC1(C(F)(F)F)N=C(c2ccccc2)N(C2CCCCC2)C1=O` (stereo not given), the AC50 under setting [1] is 39.8 µM [falling, single point].
As for `CCC(Oc1ccccc1F)C(=O)N1CCC(c2nc3ccccc3s2)CC1` (stereo not given), the AC50 under setting [1] is 25.1 µM [falling, partial curve].
For the molecule `O=C(NC(=O)c1ccccc1)Nc1ccc(-c2cc(C(F)(F)F)nn2-c2ccccc2)cc1`, the AC50 under setting [1] was 0.126 µM [rising, full curve].
On to `Cc1ccc(C(CC(=O)c2ccco2)SCCO)cc1` (stereo not given), for which the half-maximal activity concentration (AC50) under setting [1] is 39.8 µM [falling, single point].
`COc1ccc(Cl)cc1NC(=O)C1CCCN(c2ncnc3onc(C)c23)C1` (stereo not given): the half-maximal activity concentration (AC50) under setting [1] is 31.6 µM [falling, partial curve].
Same read-out and setting: under `COc1ccccc1CCNC(=O)C1CCN(c2nnc(-n3cccc3CNc3ccc(C)cc3)s2)CC1` stands 12.6 µM [falling, partial curve].
Still for that read-out and setting: to `COc1ccc(N2CCN(c3csc4ccc(Cl)cc4c3=O)CC2)cc1` belongs 31.6 µM [falling, partial curve, poor fit]; to `COc1ccc(S(=O)(=O)Nc2ccccc2C(=O)NCc2ccco2)cc1Br`, 12.6 µM [falling, partial curve].
For `O=C(O)c1ccc2nc(-c3cc4cccc(O)c4oc3=O)[nH]c2c1`, the AC50 under setting [1] is 0.126 µM [falling, full curve].
In the case of `CCc1ccccc1Nc1nn2c(=O)c3ccc(C(=O)NCc4ccccc4OC)cc3nc2s1`, the AC50 under setting [1] is 10 µM [falling, partial curve].
`CCOC(=O)c1c(C)[nH]c(C)c1S(=O)(=O)N1CCCC(C(=O)Nc2ccc(C)cn2)C1` (stereo not given): under setting [1], the AC50 was 20 µM [falling, partial curve, poor fit].
In the case of `COc1ccccc1Cn1cc(C(=O)c2ccc(C)cc2)c(=O)c2cc(C)ccc21`, the concentration at half-maximal activity (AC50) under setting [1] is 31.6 µM [falling, partial curve].
Same read-out and setting: under `Clc1ccc2c(c1)NC(c1ccncc1)=NC(c1cccs1)=N2` stands 12.6 µM [falling, partial curve]; under `COc1ccc2c(c1)CCc1c(C(=O)Nc3c(C)nn(Cc4ccccc4C)c3C)noc1-2`, 7.94 µM [falling, partial curve]; under `COc1cc(CNC(=O)c2ccc3nc(CCc4ccccc4)oc3c2)cc(OC)c1OC`, 39.8 µM [falling, single point].
On the same count and under the same terms, under `CCN(CC)S(=O)(=O)c1cccc(C(=O)Nc2ccc(C#N)cc2)c1` stands 7.94 µM [falling, partial curve].
Turning to `CNS(=O)(=O)c1cn(CC(=O)N2CCN(c3cccc(C)c3C)CC2)cc1S(=O)(=O)NC`, under setting [1], the AC50 is 20 µM [falling, partial curve].
Turning to `O=c1cc(-c2ccccc2)nc(SCc2nc(-c3ccc(Cl)cc3)no2)[nH]1`, the AC50 under setting [1] was 15.8 µM [rising, partial curve].
Turning to `CCN1CCN(C(=O)c2cnn(-c3cccc(Cl)c3)c2C2CCN(C(=O)OC(C)(C)C)CC2)CC1`, the concentration at half-maximal activity (AC50) under setting [1] is 20 µM [falling, single point].
Still for that read-out and setting: under `CCCCn1nnnc1SCC(=O)Nc1sc2c(c1C#N)CCCC2` stands 31.6 µM [falling, single point]; under `CN1CCN(c2ccccc2NC(=O)c2ccc(OCc3ccccc3)cc2)CC1`, 15.8 µM [falling, partial curve].
Consider `Cc1cccc(NC(=O)c2ccc3snnc3c2)c1C`, for which the AC50 under setting [1] was 39.8 µM [falling, single point].
As for `N#C[C@@H]1[C@@H]2C(=O)N(c3ccc4c(c3)OCCO4)C(=O)[C@@H]2C2c3ccccc3C=CN21` (stereo not given in full), the AC50 under setting [1] was 10 µM [falling, partial curve].
Still for that read-out and setting: to `Cc1cccc(NC(=O)c2cc3c(=O)n4cccc(C)c4nc3s2)c1C` belongs 0.0794 µM [rising, partial curve, poor fit]; to `COCC(C)NC(=O)c1cc(-c2ccc(O)cc2)on1` (stereo not given), 15.8 µM [falling, partial curve]; to `CC(C)CN(CCCNC(=O)CN1N=C(c2ccc(Cl)cc2)CCC1=O)CC(C)C`, 39.8 µM [falling, single point].
Turning to `Cc1ccc(OCC(=O)Nc2cccc(-c3nc4ccccc4s3)c2)cc1`, the AC50 under setting [1] is 15.8 µM [falling, partial curve].
Still for that read-out and setting: to `CCOc1ccc(NC(=O)C2CC(=O)NC(=Nc3ccc(Cl)c(Cl)c3)S2)cc1` (stereo not given) belongs 7.94 µM [falling, full curve].
With `Cc1c(C(=O)NCc2ccccc2)sc2nc3n(c(=O)c12)CCCCC3`, the AC50 under setting [1] was 2 µM [rising, partial curve].
As for `CCOC(=O)c1ccc(NC(=O)C2CCCN(c3ncnc4onc(-c5ccc(F)cc5)c34)C2)cc1` (stereo not given), the AC50 under setting [1] was 31.6 µM [falling, single point].
Still for that read-out and setting: under `COC(=O)C(Cc1c[nH]c2ccccc12)NC(=O)COc1cccc(C)c1` (stereo not given) stands 25.1 µM [falling, single point]; under `COCCNC(=O)CCn1c(=O)c2cc(OC)c(OC)cc2n(CC(=O)Nc2ccc(Cl)cc2F)c1=O`, 12.6 µM [falling, partial curve, poor fit]; under `O=C(COc1ccccc1)N1CCN(c2nnc(-c3ccccc3)c3ccccc23)CC1`, 12.6 µM [falling, partial curve].
As to `O=C(COc1ccccc1F)Nc1ccc2oc(-c3cccc(Cl)c3)nc2c1`, the AC50 under setting [1] was 0.631 µM [rising, full curve].
Consider `Cc1ccc(-c2ccc(=O)n(CC(=O)Nc3ccc(C)cc3Cl)n2)cc1`, for which the AC50 under setting [1] was 20 µM [falling, partial curve].
Consider `O=C(CSc1nnc(-c2cnccn2)n1Cc1ccco1)Nc1ccc(Br)cc1`, for which the AC50 under setting [1] is 12.6 µM [falling, partial curve].
For the molecule `COc1ccc(C(=O)Nc2ccc3oc(-c4cccnc4)nc3c2)cc1`, the half-maximal activity concentration (AC50) under setting [1] is 7.94 µM [falling, partial curve].
As to `Clc1cccc(N2CCN(c3nc4ccccc4n4nnnc34)CC2)c1`, the concentration at half-maximal activity (AC50) under setting [1] is 0.501 µM [falling, full curve].
For the molecule `O=C(NCc1ccccc1)C1CCCN(S(=O)(=O)c2cccc3nsnc23)C1` (stereo not given), the AC50 under setting [1] was 5.01 µM [falling, full curve, poor fit].
As to `O=C1CN(C(=O)COc2ccc(Cl)cc2)C(c2ccccc2)c2cc(Br)ccc2N1` (stereo not given), the AC50 under setting [1] is 20 µM [falling, partial curve].
`CCCCCOC(=O)c1[nH]c2c(c1C)C(=O)C(C(=O)OC)C(C)C2` (stereo not given): the AC50 under setting [1] is 25.1 µM [falling, partial curve].
Take `CCOc1ccc(NC(=O)CN2C(=O)CC(C)Sc3ccccc32)cc1` (stereo not given): the concentration at half-maximal activity (AC50) under setting [1] is 15.8 µM [falling, single point].
For the molecule `CCn1cc(CCC(=O)NCc2ccc(C)cc2)c2ccccc21`, the AC50 under setting [1] is 39.8 µM [falling, single point].
Regarding `CCOC(=O)Cc1csc(NC(=O)COc2ccc(N(C)S(=O)(=O)c3cccs3)cc2)n1`, the half-maximal activity concentration (AC50) under setting [1] is 10 µM [falling, partial curve].
For `COc1cc2c(=O)n(Cc3ccccc3Cl)c(=O)n(CC(=O)Nc3ccc(C)c(C)c3)c2cc1OC`, under setting [1], the AC50 is 39.8 µM [falling, partial curve].
`CCC1CN(C(=O)N2CCC(C(=O)NCc3ccc(N(C)C)cc3)CC2)c2ccccc2O1` (stereo not given): under setting [1], the concentration at half-maximal activity (AC50) was 12.6 µM [falling, partial curve].
Regarding `O=C(Nc1nc(-c2ccccn2)cs1)C1COc2ccccc2O1` (stereo not given), the concentration at half-maximal activity (AC50) reads like this: under setting [2], 3.98 µM [rising, partial curve]; under setting [3], 7.94 µM [falling, partial curve].
